Assay results from publication PMC12334701.
No constants are given. Whether binding was seen depends on the method and setting. In cells and extracts the contact can be indirect. Some results given as binding are weak or reduced against the parent protein; the word gives no strength.

Protein sequences, listed by entry. Tags and fused reporters are not part of them.
UniProt P23198: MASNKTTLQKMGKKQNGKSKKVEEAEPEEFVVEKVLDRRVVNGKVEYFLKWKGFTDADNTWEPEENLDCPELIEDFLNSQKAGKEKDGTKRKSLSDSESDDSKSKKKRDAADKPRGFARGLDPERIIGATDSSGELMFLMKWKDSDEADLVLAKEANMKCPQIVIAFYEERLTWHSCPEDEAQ
UniProt Q6Q783: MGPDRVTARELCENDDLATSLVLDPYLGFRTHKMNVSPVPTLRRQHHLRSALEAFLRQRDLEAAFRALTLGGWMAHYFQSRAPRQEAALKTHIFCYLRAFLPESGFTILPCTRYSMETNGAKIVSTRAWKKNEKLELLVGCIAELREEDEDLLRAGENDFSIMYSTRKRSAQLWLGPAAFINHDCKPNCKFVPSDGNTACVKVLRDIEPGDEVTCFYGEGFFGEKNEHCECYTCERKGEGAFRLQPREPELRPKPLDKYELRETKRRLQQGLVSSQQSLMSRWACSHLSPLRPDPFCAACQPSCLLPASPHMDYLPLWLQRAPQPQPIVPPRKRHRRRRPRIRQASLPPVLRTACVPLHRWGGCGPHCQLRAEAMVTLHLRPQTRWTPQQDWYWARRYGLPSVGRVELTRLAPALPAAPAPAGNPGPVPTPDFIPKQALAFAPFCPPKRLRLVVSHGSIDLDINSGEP

Molecular target: HP1γ with C-terminal GFP (pCAG-HP1γ-GFP) (mouse) (UniProt P23198)
Assay: co-IP; HEK293T cells transfected with GFP-tagged HP1 constructs and myc-DKK-tagged SUV420H2; RIPA lysates, sonicated; IP with mouse anti-myc 9B11 or goat anti-GFP and protein G sepharose, 4 °C; western blot

binding: binds
Substance: SUV420H2 with C-terminal myc-DKK (from UniProt Q6Q783 1-468) (enzyme)
